Results from PubChem BioAssay AID504467 (National Center for Advancing Translational Sciences (NCATS), 2011).
The campaign covered roughly 330,000 compounds. About 7,700 (2.3%) were called active. This list was built around the results that the source calls inconclusive (neither active nor inactive); the mix of calls is not that of the screen. The call rests on the fitted dose curve; in most records, active means well fitted inhibition curve with a large enough effect; inconclusive means small, poorly fitted or top-dose-only effect, or effect the other way; inactive means flat fitted curve, though single readings scatter. Potencies of inconclusive entries are doubtful fits and often do not repeat.

Assay: qHTS screen for small molecules that inhibit ELG1-dependent DNA repair in human embryonic kidney (HEK293T) cells expressing luciferase-tagged ELG1; further: nearly all actives have a fitted effect of over 55% in size
Conditions: HEK293T ELG1-luciferase reporter, luminescence, 16 h, DNA damage induced by 5-fluorouridine; activity change, negative = inhibition: at 46.1 µM (top of the series)
Method in brief: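 In this reporter screen, reduction of luminescence relative to DMSO vehicle indicated activity. Compounds and 5-fluorouridine were added together to 2,000 cells per well, incubated for 16 hr at 37 °C, then developed with ONE-Glo.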
On the % scale 0 is the no-effect control and ±100 the full control effect; potency means the concentration at half of the fitted maximal effect.

| Structure (SMILES) | Potency | activity change, negative = inhibition |
| --- | --- | --- |
| CC(OC(=O)Cn1[nH]c(=O)c2ccccc2c1=O)C(=O)Nc1ccc(F)cc1 (stereo not given) | inconclusive: 0.231 µM [activator, single point] | – |
| COc1ccc(OC)c(/C=N/NC(=O)c2ccc(Cn3cc([N+](=O)[O-])cn3)o2)c1 | – | inactive: -23.1% |
| CC1=C(C(=O)c2ccccc2)C(c2ccc(OC(F)F)cc2)NC(=S)N1 (stereo not given) | – | inactive: -7.03% |
| Cn1nc(-c2ccccc2)c(N2CCCCC2)cc1=O | inconclusive: 14.6 µM [activator, partial curve] | – |
| O=C(NN1C(=O)c2ccccc2NC1c1ccco1)c1ccccc1 (stereo not given) | inconclusive: 5.17 µM [activator, single point] | – |
| CCN1CCN(CCNC(=O)c2ccc(/C=C3/Sc4ccccc4N(Cc4cccc(C)c4)C3=O)cc2)CC1 | inconclusive: 16.4 µM [activator, partial curve] | – |
| COc1ccccc1-c1cn(-c2ccccc2)c(=S)[nH]1 | inconclusive: 0.184 µM [inhibitor, single point] | – |
| CCOc1cc(/C=C2\CN(C)C/C(=C\c3ccc(O)c(OCC)c3)C2=O)ccc1O | active: 23.1 µM | – |
| Cc1ccc(Nc2nc(-c3sc(N)nc3C)cs2)cc1 | – | inactive: -0.508% |
| CC(C)N(C)S(=O)(=O)c1ccc(NC(=O)C2=COCCO2)cc1 | inconclusive: 20.6 µM [activator, partial curve] | – |
| COc1ccc(C(C#N)c2cnccn2)cc1OC (stereo not given) | – | inactive: 9.78% |
| Cc1nn(C)c(C)c1Nc1ccc(N2C(=O)C3C4C=CC(C4)C3C2=O)cc1[N+](=O)[O-] (stereo not given) | inconclusive: 23.1 µM [inhibitor, single point] | – |
| COc1cc(C(C)=O)ccc1OCC(O)CN1CCN(c2ccc(C)cc2C)CC1 (stereo not given) | inconclusive: 2 µM [inhibitor, full curve] | – |
| CN(C(=O)CSc1nnc(-c2cccs2)o1)C1CCS(=O)(=O)C1 (stereo not given) | – | inactive: 9.16% |
| O=C(O)[C@@H]1CSC2(CCSC2)N1 (stereo not given in full) | – | inactive: 12% |
| CON(C)C(=O)CCC1CCCN1C(=O)OC(C)(C)C (stereo not given) | inconclusive: 16.4 µM [activator, partial curve, poor fit] | – |
| O=C(COC(=O)c1cc(=O)[nH]c(=O)[nH]1)NCc1ccccc1 | inconclusive: 0.184 µM [inhibitor, single point] | – |
| COCC(C)NC(=O)c1ccc2nc(-c3ccccc3)c(-c3ccccc3)nc2c1 (stereo not given) | inconclusive: 13 µM [inhibitor, partial curve, poor fit] | – |
| CCOc1ccc(NC(c2ccccn2)c2oc(CO)cc(=O)c2O)cc1 (stereo not given) | inconclusive: 20.6 µM [activator, partial curve] | – |
| Cc1c(C(=O)c2ccccc2)c2ccccn2c1CCc1ccccn1 | inconclusive: 29.1 µM [inhibitor, single point] | – |
| Cc1ccc(S(=O)(=O)/N=C(/NC(=S)Nc2cccc(C)c2)c2ccccc2)cc1 | – | inactive: 25.4% |
| CC(=O)N1CCN(CC(C)(C)NS(=O)(=O)c2ccc(C)cc2)CC1 | inconclusive: 2.31 µM [inhibitor, partial curve, poor fit] | – |
| O=C(CC1C(=O)NCCN1Cc1ccc(-c2ccccc2)cc1)NCCOc1cccnc1 (stereo not given) | inconclusive: 29.1 µM [inhibitor, single point] | – |
| Cc1oncc1C(=O)N1CCCC(CO)(Cc2ccc(F)cc2F)C1 (stereo not given) | inconclusive: 10.3 µM [activator, partial curve, poor fit] | – |

| Structure (SMILES) | Potency | activity change, negative = inhibition |
| --- | --- | --- |
| COC(=O)c1c(C)[nH]c(C=O)c1-c1ccccc1 | inconclusive: 18.3 µM [activator, partial curve] | – |
| Cc1ccc(SCc2nc(-c3ccncc3)no2)cc1 | – | inactive: 12.2% |
| CCc1ccccc1NC(=O)C1=CC(c2ccc(OC)c(OC)c2)=NS(=O)(=O)N1C | – | inactive: -11.1% |
| CCN1CCN(Cc2c(O)ccc3c2O/C(=C\C=C\c2ccccc2)C3=O)CC1 | inconclusive: 29.1 µM [inhibitor, single point] | – |
| COC(=O)CC1C(=O)NCCN1C(=S)NC(=O)CCc1ccccc1 (stereo not given) | – | inactive: 7.38% |
| COc1ccc2nc(SCC(C)=O)c(C#N)cc2c1 | inconclusive: 1.84 µM [activator, partial curve] | – |
| CCc1nc2n[nH]c(N)c2c2c1CSC(C)(C)C2 | inconclusive: 29.1 µM [inhibitor, single point] | – |
| O=C1c2ccccc2C(=O)N1c1ncc(Cc2ccc(Cl)cc2)s1 | inconclusive: 13 µM [activator, partial curve] | – |
| CCOc1ccc(CN(C)C(=O)CNC(=O)C2CCCCC2)cc1OC | inconclusive: 4.61 µM [activator, single point] | – |
| COc1ccccc1-c1ccc(=O)n(CC(=O)NCc2ccco2)n1 | inconclusive: 29.1 µM [activator, partial curve, poor fit] | – |
| CCCCN(Cc1ccccc1)S(=O)(=O)c1cc(Br)cc2c1N(C(C)=O)C(C)C2 (stereo not given) | inconclusive: 16.4 µM [inhibitor, single point] | – |
| O=C(N/N=C\c1cccc(F)c1)c1ccc(Cn2cc(Br)c([N+](=O)[O-])n2)o1 | inconclusive: 32.6 µM [inhibitor, partial curve, poor fit] | – |
| CS(=O)(=O)Nc1cccc(C2=NN(C(=O)c3ccc(F)cc3)C(c3cccs3)C2)c1 (stereo not given) | inconclusive: 29.1 µM [inhibitor, single point] | – |
| Cc1ccc2nc(-c3ccccc3)cc(C(=O)NCCCn3ccnc3)c2c1 | – | inactive: -3.23% |
| COc1cc2c(cc1Cl)/C(=C\CCN(C)C)c1ccccc1S2 | – | inactive: -8.55% |
| N#CCCN(C(=O)COC(=O)CCNS(=O)(=O)c1ccccc1)c1ccccc1 | – | inactive: 3.83% |
| CC(C)CN(C(=O)C1CCCO1)C1CCS(=O)(=O)C1 (stereo not given) | inconclusive: 25.9 µM [activator, partial curve, poor fit] | – |
| CC1=C(OC(=O)c2ccccc2)C(C)(C)C(c2ccc(Br)cc2)OC1=O (stereo not given) | – | inactive: 2.11% |
| COc1ccccc1Nc1nc(N)nc(CN2CCN(Cc3ccc4c(c3)OCO4)CC2)n1 | inconclusive: 29.1 µM [inhibitor, single point] | – |
| C=CCn1c(C)cc(C2=NNC(=NCc3ccccc3)SC2)c1C | inconclusive: 25.9 µM [activator, single point] | – |
| CCCCn1c(SCC(=O)c2ccc(O)c(O)c2)nc2ccsc2c1=O | – | inactive: -19.1% |
| Cc1ccccc1OCC(O)Cn1c(Br)nc2c1c(=O)[nH]c(=O)n2C (stereo not given) | inconclusive: 29.1 µM [inhibitor, single point] | – |
| CNc1c([N+](=O)[O-])cnn1-c1ccccc1Cl | inconclusive: 14.6 µM [activator, partial curve] | – |
| COc1cc(C(F)(F)F)c(C(=O)N(C)Cc2cc(Cl)cc(Cl)c2)cn1 | inconclusive: 13 µM [inhibitor, single point] | – |

Rewritten bar-delimited: 17 of the compounds above
Structure (SMILES) | Potency | activity change, negative = inhibition
COC(=O)CC1C(=O)NCCN1C(=S)NC(=O)CCc1ccccc1 (stereo not given) | – | inactive: 7.38%
COc1ccc2nc(SCC(C)=O)c(C#N)cc2c1 | inconclusive: 1.84 µM [activator, partial curve] | –
CCc1nc2n[nH]c(N)c2c2c1CSC(C)(C)C2 | inconclusive: 29.1 µM [inhibitor, single point] | –
O=C1c2ccccc2C(=O)N1c1ncc(Cc2ccc(Cl)cc2)s1 | inconclusive: 13 µM [activator, partial curve] | –
CCOc1ccc(CN(C)C(=O)CNC(=O)C2CCCCC2)cc1OC | inconclusive: 4.61 µM [activator, single point] | –
COc1ccccc1-c1ccc(=O)n(CC(=O)NCc2ccco2)n1 | inconclusive: 29.1 µM [activator, partial curve, poor fit] | –
CCCCN(Cc1ccccc1)S(=O)(=O)c1cc(Br)cc2c1N(C(C)=O)C(C)C2 (stereo not given) | inconclusive: 16.4 µM [inhibitor, single point] | –
O=C(N/N=C\c1cccc(F)c1)c1ccc(Cn2cc(Br)c([N+](=O)[O-])n2)o1 | inconclusive: 32.6 µM [inhibitor, partial curve, poor fit] | –
CS(=O)(=O)Nc1cccc(C2=NN(C(=O)c3ccc(F)cc3)C(c3cccs3)C2)c1 (stereo not given) | inconclusive: 29.1 µM [inhibitor, single point] | –
Cc1ccc2nc(-c3ccccc3)cc(C(=O)NCCCn3ccnc3)c2c1 | – | inactive: -3.23%
COc1cc2c(cc1Cl)/C(=C\CCN(C)C)c1ccccc1S2 | – | inactive: -8.55%
N#CCCN(C(=O)COC(=O)CCNS(=O)(=O)c1ccccc1)c1ccccc1 | – | inactive: 3.83%
CC(C)CN(C(=O)C1CCCO1)C1CCS(=O)(=O)C1 (stereo not given) | inconclusive: 25.9 µM [activator, partial curve, poor fit] | –
CC1=C(OC(=O)c2ccccc2)C(C)(C)C(c2ccc(Br)cc2)OC1=O (stereo not given) | – | inactive: 2.11%
COc1ccccc1Nc1nc(N)nc(CN2CCN(Cc3ccc4c(c3)OCO4)CC2)n1 | inconclusive: 29.1 µM [inhibitor, single point] | –
C=CCn1c(C)cc(C2=NNC(=NCc3ccccc3)SC2)c1C | inconclusive: 25.9 µM [activator, single point] | –
CCCCn1c(SCC(=O)c2ccc(O)c(O)c2)nc2ccsc2c1=O | – | inactive: -19.1%

The list goes on:

| Structure (SMILES) | Potency | activity change, negative = inhibition |
| --- | --- | --- |
| CC(=O)NCCC(=O)N1CCc2c([nH]c3ccccc23)C1c1cccc(C)c1 (stereo not given) | inconclusive: 6.51 µM [inhibitor, single point] | – |
| Cc1ccc(C(=O)NCCC(=O)N2CCOCC2)cc1 | inconclusive: 16.4 µM [activator, partial curve] | – |
| Cc1ccc(N2C(S)=C(C#N)C(=O)NC2c2cccs2)cc1 (stereo not given) | – | inactive: 18.9% |
| CN1CCN(C2CC(=O)N(c3ccc4c(c3)OCCO4)C2=O)CC1 (stereo not given) | inconclusive: 4.11 µM [activator, single point] | – |
| CC1=C(C#N)C(c2cccnc2)C2=C(N1)c1ccccc1C2=O (stereo not given) | inconclusive: 5.8 µM [inhibitor, partial curve, poor fit] | – |
| CCN1CCN(c2cc(C)c3cc(NC(=S)NCc4cccs4)ccc3n2)CC1 | – | inactive: -12.6% |
| Cc1c(C(=S)Nc2ccccc2)cnn1-c1ccccc1 | – | inactive: 21.5% |
| O=C(Nc1ccncc1)c1ccccc1[N+](=O)[O-] | inconclusive: 14.6 µM [inhibitor, partial curve] | – |
| CCOc1ccccc1Nc1nc2ccccc2[nH]1 | inconclusive: 29.1 µM [inhibitor, single point] | – |
| O=C(NNC(=O)c1ccc([N+](=O)[O-])o1)c1ccccc1 | – | inactive: -17.6% |
| CS(=O)(=O)N1CCN(c2nc3ccccc3s2)CC1 | inconclusive: 8.2 µM [activator, partial curve] | – |
| CC(=O)Nc1ccc2nc(NC(=O)c3ccco3)sc2c1 | inconclusive: 14.6 µM [activator, partial curve] | – |
| COc1ccccc1C(=O)Nc1ccc2c(c1)nc1n2CCN(Cc2ccccc2)C1 | inconclusive: 6.51 µM [inhibitor, partial curve] | – |
| CCC(=O)NC(c1ccccc1OC)c1ccc2cccnc2c1O (stereo not given) | active: 4.11 µM | – |
| CCc1ccc(-c2cc(C)no2)cc1S(=O)(=O)N1CCN(c2ccccc2)CC1 | – | inactive: -24.8% |
| Oc1cccc2ccc(N3CCOCC3)nc12 | inconclusive: 32.6 µM [activator, single point] | – |
| Cc1ccc(C(=O)Nc2ccon2)cc1S(=O)(=O)N1CCCCCC1 | inconclusive: 29.1 µM [inhibitor, single point] | – |
| Cc1ccc(NC(=O)c2cccc(S(=O)(=O)N3CCCC3)c2)nc1 | inconclusive: 6.51 µM [activator, single point] | – |
| CSCC[C@H](NC(=O)OC(C)(C)C)c1nnc(SCC(=O)Nc2ccc(C)cc2C)o1 | inconclusive: 23.1 µM [inhibitor, partial curve] | – |
| COC(=O)C1=C(C)N(Cc2ccccc2)C(=NCCCCO)N[C@H]1c1cccc(C(F)(F)F)c1 | inconclusive: 16.4 µM [activator, single point] | – |
| CC(=O)O[C@H](COc1c2ccoc2cc2oc(=O)ccc12)C(C)(C)O | inconclusive: 16.4 µM [activator, single point] | – |
| Cc1cccc(C)c1NC(=O)Cn1nnc(-c2ccc(CN3CCC(C)CC3)cc2)n1 | – | inactive: -11.6% |
